Data from PubChem BioAssay AID1794845 (National Center for Advancing Translational Sciences (NCATS), 2023).
Fewer than 10 of roughly 6,900 compounds were called active. The call rests on the fitted dose curve; in most records, active means well fitted curve in the direction sought with a large enough effect; inconclusive means small, poorly fitted or top-dose-only effect, or another doubt; inactive means no such curve, though single readings can be large or run the other way. Some of the results follow.

Chains of the proteins cited; added tags and fusions are not shown. Lines headed by an entry give the natural chain unless they say otherwise; changes in a name come on top.
UniProt C7C422: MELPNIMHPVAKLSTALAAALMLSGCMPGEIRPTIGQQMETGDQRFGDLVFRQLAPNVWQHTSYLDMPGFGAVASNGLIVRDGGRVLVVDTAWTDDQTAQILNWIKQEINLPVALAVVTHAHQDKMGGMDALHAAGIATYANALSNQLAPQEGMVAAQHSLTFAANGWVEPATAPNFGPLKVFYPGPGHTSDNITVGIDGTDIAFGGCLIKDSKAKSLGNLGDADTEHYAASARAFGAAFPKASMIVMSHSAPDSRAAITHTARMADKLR

Biological target: Metallo-beta-lactamase type 2 (Klebsiella pneumoniae) (UniProt C7C422)
Assay: qHTS to identify inhibitors of the New Delhi Metallo-beta-lactamase (NDM): primary screen against the NCATS Gemini Collection; further: % of control where 0% means no effect
Details: NDM-1 enzyme, meropenem hydrolysis, absorbance 300 nm; at 38.4 µM (top of the series) unless noted
Procedure, shortened: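 NDM-1 at 2 nM final in 50 mM HEPES pH 7.0, 1 uM ZnSO4, 0.01% Tween20, preincubated >30 min with compound. Meropenem 50 uM final added; absorbance at 300 nm after 30 min.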

Compound | activity % (negative = inhibition)
C#CCOc1ccccc1CN1CCN(c2ncc(F)cn2)CC1 | inactive: 3.28%
CCNC(=O)N1C[C@H]2OC(=O)N(Cc3ccc(OC)c(OC)c3)[C@H]2C1 | inactive: 9.41%
CC(C)c1nc(-c2ccc(OC3CCNC3)cc2)no1 (centres undefined) | inactive: 9.76%
CC(C)CCN1CC(Oc2ccc(F)cc2F)C1 | inactive: -2.02% [at 57.5 µM]
Cc1cc(CNS(=O)(=O)c2ccc3c(c2)CCN(C(=O)C(O)C(C)C)C3)no1 (centres undefined) | inactive: -1.18%
CCc1nc(CN2CCOC(c3ccc4cc(OC)ccc4c3)C2)no1 (centres undefined) | inactive: 0.411%
CC(C)CNc1ncnc2c1CN(C1CNC1)C(=O)CN2C | inactive: 15.2%
O=C1NCCCCCN(CC2CCCCC2)[C@H]2CCC[C@@H]12 | inactive: 4.15%
CCc1nc(CC)n2ccn(Cc3ccc(OC)cc3)c(=O)c12 | inactive: 2.7%
O=C(Nc1ccc2c(c1)OCCO2)N1CC(c2nc(CCOCC3CC3)no2)C1 | inactive: 5.68%
Cc1cc(C)cc(CCC(=O)N2CCN(c3ccc(C#N)cn3)CC2)c1 | inactive: 28.9%
CC(C)Cc1cc(CC2(NC3CCOCC3)COC2)no1 | inactive: -0.303% [at 57.5 µM]
COCC(=O)N1CCC(c2nn(-c3ccccn3)c(=O)[nH]2)CC1 | inactive: 11.1% [at 57.5 µM]
O=S(=O)(Cc1ccccc1)NC[C@H]1Cn2cc(-c3ccccc3)nc2CO1 | inactive: 0.229% [at 57.5 µM]
CC(C)(Oc1nn(CCOc2ccccc2)c2ccccc12)C(=O)NCc1ccncc1 | inactive: 5.77% [at 57.5 µM]
FC(F)Oc1ccccc1CN(CC1CCN(C2CCCC2)CC1)CC1CCCO1 (centres undefined) | inactive: 51.9%
COc1ccccc1-n1cc(C(=O)N2CCC3(CCNC(=O)CC3)CC2)cn1 | inactive: -0.281%
CCN(Cc1nccn1C)C(=O)c1ccc(N2CCSCC2)nc1 | inactive: -5.74%
COc1ccccc1-c1ccc2c(n1)CN(CC(=O)N1CCCC1)C(=O)CO2 | inactive: 7.19% [at 57.5 µM]
COCCCN1CC2(CCN(C(=O)CCn3cc(C)cn3)CC2)CC1=O | inactive: 1.5%
O=C(NC1CCCCC1)N[C@H]1CO[C@H]2[C@@H]1OC[C@H]2O | inactive: -1.33% [at 77.1 µM]

Compound | activity % (negative = inhibition)
O=[S+]([O-])(Nc1ccccc1)c1ccc2c(c1)OCCN(Cc1cocn1)C2 | inactive: -7.09% [at 57.5 µM]
CC(C)CN1CCc2[nH]cnc2C12CCN(C(=O)c1n[nH]c3c1CCC3)CC2 | inactive: -5.09%
COc1ccc(-c2ncc3c(n2)OCCN(Cc2ccccc2)C3=O)cn1 | inactive: 5.46% [at 57.5 µM]
COc1ccc(-c2cc(N3CCCC(NC(=O)C4CCCC4)C3)n[nH]2)cc1 (centres undefined) | inactive: 3.11%
O=C(Nc1ccccc1)N1CCC(Oc2ccccc2-c2nc(-c3ccccc3)no2)C1 (centres undefined) | inactive: 0.401%
O=C1N[C@@H](Cc2cccs2)C(=O)N2CC[C@H](NS(=O)(=O)c3cccs3)C[C@@H]12 | inactive: 7.8% [at 57.5 µM]
CNC(=O)C1(N2CCC[C@H]2C(=O)NCCNC(C)=O)CCCCC1 | inactive: 11.9% [at 57.5 µM]
O=C(NCC(F)(F)F)c1cn2cc(-c3ccc(C(F)(F)F)cc3)sc2n1 | inactive: 2.73%
COCc1ccc(C(=O)NCc2cc(C)cc3c(C)c(C)[nH]c23)o1 | inactive: 19.8%
COCCn1c2c(c(=O)n1-c1ccccc1)CCN(C(=O)c1cccc(C#N)c1)C2 | inactive: 2.95% [at 57.5 µM]
O=C(c1ccc(C(F)(F)F)cc1)N1CC2CC(C1)[C@H]1CCCC(=O)N1C2 (some centres undefined) | inactive: 11.9%
COc1ccc(C(=O)Nc2cnc(-c3ccc(Cl)cc3)nc2)cc1 | inactive: -2.84%
CCOCC(=O)N1CCC(Nc2cccn3ncnc23)CC1 | inactive: 12.2%
Cc1cc(C(=O)N2CCC3(CC2)CC(O)CCO3)c(C)o1 (centres undefined) | inactive: -0.624%
Cc1ccccc1-c1[nH]nc2ncc(-c3c(C)noc3C)nc12 | inactive: 11.6% [at 57.5 µM]
Cc1nc([C@H]2CCNC[C@H]2NC(=O)C2CC2)n[nH]1 | inactive: 33.9%
C=CCn1cc(CN2CCOC(Cc3cccc4ccccc34)C2)c(C)n1 (centres undefined) | inactive: 18.4%
COc1cccc(CN2CCOCCNC(=O)CC2)c1 | inactive: 46.9%
CCN1CCN(C(=O)c2ccc(-c3nnc4ccc(NC(=O)C5CC5)cn34)cc2)CC1 | inactive: 4.68%
O=C1CCCCC(C(=O)NC2CCCC2)N1 (centres undefined) | inactive: 2.7%
O=C(NC[C@H]1O[C@@H](CO)[C@@H](O)[C@H]1N1CCN(c2ccccn2)CC1)Nc1ccccc1 | inactive: 14.7%

Compound | activity % (negative = inhibition)
COCC[C@]1(O)CCN(C(=O)c2cccc(OC)c2C)C[C@H]1C | inactive: -4.47%
CN(Cc1cccc(-c2nn[nH]n2)c1)C(=O)c1ccc(C2CCCNC2)cc1 (centres undefined) | inactive: -0.815%
C[C@H](C(=O)N1CCOCC1)C1CC[C@@]2(C)Cc3sc(-c4ccccc4)nc3[C@@H](C)[C@@H]2[C@H]1O (some centres undefined) | inactive: 23.4%
COCC(=O)NC[C@H]1CCN(Cc2cccn2C)C[C@H]1N(C)C | inactive: 8.18%
O=C(NC1CCCN(C2CCCCCC2)C1)c1ccccc1C(F)(F)F (centres undefined) | inactive: 2.98%
COC(=O)[C@@H](Cc1c[nH]c2ccccc12)NC(=O)[C@@H]1CN(C(=O)Nc2ccccc2)CCN1C(=O)NC(C)C | inactive: 12.2%
CN(C)[C@@H]1CN(C(=O)C2CCCCC2)CC[C@@H]1CO | inactive: -3.62%
O=C(Nc1cccnc1)c1ccc2c(c1)OCCN(c1cccc(OC(F)(F)F)c1)C2 | inactive: 9.41% [at 57.5 µM]
Cc1nnc([C@@H]2CC(F)(F)CN2C(=O)COc2ccccc2)o1 | inactive: 0.585%
CCN1CCN(C(=O)C2CCCN(Cc3cccnc3)CCC(=O)NCC2)CC1 (centres undefined) | inactive: 17.8%
Cc1noc(C)c1CC(=O)N1CC[C@@H](NC(=O)c2cnccn2)[C@H](O)C1 | inactive: 3.57%
CN1CCC(C(=O)NCc2c[nH]c3ncccc23)CC1 | inactive: 7.4% [at 57.5 µM]
Cc1cc(Cl)ccc1NC1CN(C(=O)OC(C)(C)C)C1 | inactive: 47.6% [at 57.5 µM]
COC(=O)[C@H]1CCCN1C(=O)[C@@H]1[C@@H](NC(=O)Nc2ccc(F)cc2F)CCN1C(=O)c1cccn1C | inactive: 8.61%
Cc1ccc(CNC(=O)Cn2c(N3CCCCC3)nc(C)c(C)c2=O)cc1 | inactive: 8.87%
COc1ccc(-c2nnc3n2CCN(C(=O)c2ccc(Cl)nc2)C3)cc1 | inactive: -1.28%
CC(=O)c1c(C)nn(CC(=O)NC(C)c2cnn(-c3ccccc3C)c2C)c1C (centres undefined) | inactive: 2.03%
Cc1ccc(CN2CCC3(CC2)CN(c2ncccn2)CC3CO)cc1C (centres undefined) | inactive: 10.2%
CN(C)Cc1nnc(C2CC(NC(=O)Cc3c[nH]c(=O)n(C)c3=O)C2)n1C (centres undefined) | inactive: -2.57%
CN1CCN(C(=O)[C@@H]2CCC[C@@H](NCc3cnn(C)c3)CN(C)C(=O)C2)CC1 | inactive: 3.32% [at 57.5 µM]
COc1ccc(CC(=O)Nc2ccc3ncnc(N4CCCC4)c3c2)c(Cl)c1 | inactive: 0.0592%

As entered above:
COC(=O)[C@H]1CCCN1C(=O)[C@@H]1[C@@H](NC(=O)Nc2ccc(F)cc2F)CCN1C(=O)c1cccn1C | activity % (negative = inhibition): inactive: 8.61%
O=C(Nc1cccnc1)c1ccc2c(c1)OCCN(c1cccc(OC(F)(F)F)c1)C2 | activity % (negative = inhibition): inactive: 9.41% [at 57.5 µM]
CN(Cc1cccc(-c2nn[nH]n2)c1)C(=O)c1ccc(C2CCCNC2)cc1 (centres undefined) | activity % (negative = inhibition): inactive: -0.815%
COC(=O)[C@@H](Cc1c[nH]c2ccccc12)NC(=O)[C@@H]1CN(C(=O)Nc2ccccc2)CCN1C(=O)NC(C)C | activity % (negative = inhibition): inactive: 12.2%

Further entries follow:

Compound | activity % (negative = inhibition)
CC1(c2noc(-c3cccnc3)n2)CCN(C(=O)CCC(=O)N2CC(=O)Nc3ccccc32)CC1 | inactive: -1.49%
CCOCCOC1CCN(S(=O)(=O)c2ccc(OC)cc2)CC1 | inactive: 0.217%
CN1CCCCC1CCNC(=O)c1ccc(N2CCOCC2)nc1 (centres undefined) | inactive: 5.66%
O=C(O)c1cccc(C2CCCN(C(=O)CCCn3ccnc3)C2)c1 (centres undefined) | inactive: 23.1%
CC[C@H]1CN(C(=O)NC(C)C)CC[C@H]1CC(=O)N1CCC(C(=O)OC)CC1 | inactive: 10.6% [at 57.5 µM]
Cc1nc2ccccc2n1CCNC(=O)CC[C@H]1NC(=O)c2ccccc2NC1=O | inactive: 3.17%
CC(=O)Nc1cc(-c2cc(C(=O)NCc3cccnc3)c3c(c2)N(C)CCO3)ccn1 | inactive: -1.79% [at 57.5 µM]
CCc1ccc(CNc2ncncc2-c2nc(-c3ccccc3)no2)cc1 | inactive: 0.609%
COc1ccc(NC(=O)c2nc3sccn3c2-c2ccncc2)cc1 | inactive: 11.2% [at 57.5 µM]
COc1ccc(Cl)cc1Nc1ncncc1-c1nc(-c2ccccc2)no1 | inactive: 4.11%
O=C(c1ccc(C(F)(F)F)cc1)N1CCCC2(C1)C(=NC1CCCC1)NC(=O)N2c1cccnc1 (centres undefined) | inactive: 0.178%
CCCS(=O)(=O)N1CC[C@H]2NC(=O)N(c3ccc(F)cc3)C(=O)[C@H]21 | inactive: 5.7% [at 57.5 µM]
COc1ccc([C@H]2C[C@@H](O)[C@@H](O)[C@@H]2N2CCCCC2)cc1 | inactive: 10.9% [at 77.1 µM]
O=c1c2cc(-c3cccs3)nn2ccn1CC(O)c1cccc(Cl)c1 (centres undefined) | inactive: 9.7%
CN(CCc1noc(C2CN(C(=O)CN3CCCCCC3)C2)n1)S(C)(=O)=O | inactive: -4.44%
Cc1cccc(-n2ncc3c2CCCC3NC(=O)CN2CCNC(=O)C2)c1C (centres undefined) | inactive: 5.9%
Cc1nc(C2(C)CCN(C(=O)c3ccc(Cc4c(C)noc4C)o3)CC2)no1 | inactive: 92.1%
Cc1nc(C2CC(O)C2)cc(N2CCN(C(=O)c3cccs3)CC2)n1 (centres undefined) | inactive: 58.6%
COC[C@@]12CC[C@@H](N3CCOCC3)C[C@H]1CCN(c1nccc(N)n1)C2 | inactive: 0.0248%
COCC1CN(C(=O)Cn2c(=O)oc3ccccc32)CC12CCNCC2 (centres undefined) | inactive: 11.8%
CCCc1cc(C(=O)N2CCc3c(nc(-c4cccnc4)[nH]c3=O)C2)n[nH]1 | inactive: -0.0049%
